No constants are given. Whether binding was seen depends on the method and setting. In cells and extracts the contact can be indirect. These calls come from enrichment with a bait or labelling near it, and not all partners need be listed. Where a sequence is shown, tags or fusion partners need not be part of it.
T1: Flag-tagged CTC1 (wild type) (human, UniProt Q2NKJ3 1-1217)
T1 sequence (looked up): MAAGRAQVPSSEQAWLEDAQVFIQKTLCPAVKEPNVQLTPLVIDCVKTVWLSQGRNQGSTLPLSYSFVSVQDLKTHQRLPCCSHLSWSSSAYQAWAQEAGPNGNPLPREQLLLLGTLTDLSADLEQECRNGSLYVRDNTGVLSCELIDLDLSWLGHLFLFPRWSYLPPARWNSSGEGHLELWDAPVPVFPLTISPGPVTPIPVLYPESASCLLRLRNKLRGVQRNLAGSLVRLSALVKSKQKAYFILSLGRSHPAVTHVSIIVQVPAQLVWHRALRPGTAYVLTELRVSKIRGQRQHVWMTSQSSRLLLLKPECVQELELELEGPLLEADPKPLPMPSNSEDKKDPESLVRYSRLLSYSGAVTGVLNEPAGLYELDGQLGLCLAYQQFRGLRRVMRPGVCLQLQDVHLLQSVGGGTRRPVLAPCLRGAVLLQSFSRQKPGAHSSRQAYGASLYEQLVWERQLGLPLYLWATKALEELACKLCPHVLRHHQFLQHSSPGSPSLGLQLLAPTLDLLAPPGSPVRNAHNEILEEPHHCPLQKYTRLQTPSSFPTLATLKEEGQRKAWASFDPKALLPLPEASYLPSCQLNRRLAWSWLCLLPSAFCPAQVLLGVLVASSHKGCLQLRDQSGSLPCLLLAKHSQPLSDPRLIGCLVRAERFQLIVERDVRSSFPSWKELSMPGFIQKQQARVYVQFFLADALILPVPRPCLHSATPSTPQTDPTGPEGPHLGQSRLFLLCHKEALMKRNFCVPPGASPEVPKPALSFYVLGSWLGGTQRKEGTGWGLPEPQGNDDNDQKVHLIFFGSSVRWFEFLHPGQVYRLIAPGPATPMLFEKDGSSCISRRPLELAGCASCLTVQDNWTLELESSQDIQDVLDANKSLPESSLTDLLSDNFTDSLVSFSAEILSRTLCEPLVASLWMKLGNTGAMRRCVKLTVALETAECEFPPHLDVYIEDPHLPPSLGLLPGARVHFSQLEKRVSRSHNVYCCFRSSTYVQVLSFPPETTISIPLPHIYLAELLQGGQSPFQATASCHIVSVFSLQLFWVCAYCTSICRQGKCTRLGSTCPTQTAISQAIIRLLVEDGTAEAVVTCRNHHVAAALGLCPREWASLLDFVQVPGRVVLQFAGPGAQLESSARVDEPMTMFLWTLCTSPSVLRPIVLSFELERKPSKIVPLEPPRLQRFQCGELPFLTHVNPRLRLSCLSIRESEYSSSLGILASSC

Sequences of proteins named here, by UniProt entry; tags and fusion partners are left off.
UniProt Q13049: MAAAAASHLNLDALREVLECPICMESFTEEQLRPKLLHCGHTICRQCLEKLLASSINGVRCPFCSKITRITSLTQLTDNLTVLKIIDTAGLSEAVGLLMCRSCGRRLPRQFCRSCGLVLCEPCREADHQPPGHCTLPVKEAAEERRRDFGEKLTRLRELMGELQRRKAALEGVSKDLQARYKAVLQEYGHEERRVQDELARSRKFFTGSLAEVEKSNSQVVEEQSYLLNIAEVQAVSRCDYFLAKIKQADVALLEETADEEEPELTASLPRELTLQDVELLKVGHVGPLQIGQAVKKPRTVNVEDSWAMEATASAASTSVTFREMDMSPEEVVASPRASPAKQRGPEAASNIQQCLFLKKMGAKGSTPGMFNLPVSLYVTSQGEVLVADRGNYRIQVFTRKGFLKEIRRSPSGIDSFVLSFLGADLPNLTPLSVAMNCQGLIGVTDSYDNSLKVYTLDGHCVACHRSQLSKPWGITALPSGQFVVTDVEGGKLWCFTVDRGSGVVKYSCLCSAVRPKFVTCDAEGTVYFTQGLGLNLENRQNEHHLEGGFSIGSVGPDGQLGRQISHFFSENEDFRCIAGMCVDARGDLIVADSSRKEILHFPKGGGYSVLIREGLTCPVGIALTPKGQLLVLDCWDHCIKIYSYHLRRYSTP


Target: T1, Flag-tagged CTC1 (wild type)
Test: affinity purification with mass spectrometry; Flag-IP products from cells expressing Flag-CTC1 (HEK293T by the methods, HCT116 by the legend of Figure 3a), LC-MS/MS

| binding | Molecule |
| --- | --- |
| binds | TRIM32 (endogenous, found with Flag-CTC1) (from UniProt Q13049 1-653) (enzyme) |
| binds | TEN1 (endogenous, found with Flag-CTC1) (protein, UniProt Q86WV5 1-123) MMLPKPGTYYLPWEVSAGQVPDGSTLRTFGRLCLYDMIQSRVTLMAQHGSDQHQVLVCTKLVEPFHAQVGSLYIVLGELQHQQDRGSVVKARVLTCVEGMNLPLLEQAIREQRLYKQERGGSQ |
| binds | HA-tagged STN1 (wild type) (natural protein, human, UniProt Q9H668 1-368, looked up) MQPGSSRCEEETPSLLWGLDPVFLAFAKLYIRDILDMKESRQVPGVFLYNGHPIKQVDVLGTVIGVRERDAFYSYGVDDSTGVINCICWKKLNTESVSAAPSAARELSLTSQLKKLQETIEQKTKIEIGDTIRVRGSIRTYREEREIHATTYYKVDDPVWNIQIARMLELPTIYRKVYDQPFHSSALEKEEALSNPGALDLPSLTSLLSEKAKEFLMENRVQSFYQQELEMVESLLSLANQPVIHSASSDQVNFKKDTTSKAIHSIFKNAIQLLQEKGLVFQKDDGFDNLYYVTREDKDLHRKIHRIIQQDCQKPNHMEKGCHFLHILACARLSIRPGLSEAVLQQVLELLEDQSDIVSTMEHYYTAF |
